From patent US9359322B2, “C-linked glucuronide of N-(4-hydroxybenzyl) retinone, analogs thereof, and methods of using the same to inhibit neoplastic cell growth” (Wisconsin Alumni Research Foundation, priority 2005, dated 2016)
Some entries share one result that the patent states for a list of compounds. For at least one compound, name, drawing or mass did not settle the structure. Some compounds share one range, which may span the group rather than tell each member.

The compounds below were run on DMBA-induced rat mammary tumor (assay: DMBA-induced rat mammary tumor model, retinoid-containing diets). Conditions: 2 mmole/kg diet for 22 days.
Format: in vivo
Method: Preliminary evaluation of the mammary tumor chemotherapeutic activity of 4-HBRCG (7) was conducted, and its toxicity profile was also assessed. As previously described,^7, 12 tumor-bearing female rats (treated ca. 50 days earlier with 7,12-dimethylbenz(a)anthracene [DMBA]) were fed the control or retinoid-containing diets (RA (2), 4-HPR (3) or 4-HBRCG (7)) at 2 mmole/kg diet for 22 days.
Animal Studies: Mammary tumors were induced by intragastric intubation of 50-day old female Sprague-Dawley rats (Harlan Industries, Indianapolis, Ind.) with a single dose of 15 mg DMBA in 1.0 ml of sesame oil per rat. The rats were then maintained on a powdered Teklad 22/5 rodent chow diet (W) 8640 (Harlan Industries, Indianapolis, Ind.), and allowed food and water ad libitum. Four months later, rats which had developed palpable tumors were randomly assigned to the experimental groups (4 rats/group). The retinoid-treated groups were fed diets supplemented with 2 mmol/kg diet of atRA, 4-HPR, or 4-HBRCG, respectively. The retinoids were added to the diet in a vehicle consisting of 25 ml of ethanol: tricaprylin (1:4 v/v) plus 2% (w/v) of α-tocopherol as previously described.^9 This vehicle was also added to the control diet. The additives were blended into the chow diets using a Hobart food mixer. The diets were fed in stainless steel feeders designed with food hoppers. […] Food consumption was determined once weekly, and from that the average daily consumption/rat was estimated. […] Animals were also weighted weekly and monitored for general health status and signs of possible toxicity due to treatment.
Baseline measurement of initial tumor sizes, numbers and rat body weights were determined immediately before commencement of treatments, and final measurements were recorded just prior to sacrifice of the animals. Animals were palpated for tumors twice weekly and tumor diameters were measured weekly by a micrometer caliper. Tumor volumes were calculated using the formula [V= 4/3 πr^3] where r is one-half the mean of the sum of the largest diameter and the axis at right angle to it. […]

SMILES	Reduction of tumor volume
CC1=C(/C=C/C(C)=C/C=C/C(C)=C/C(=O)Nc2ccc(O)cc2)C(C)(C)CCC1 [4-HPR (3), N-(4-hydroxyphenyl) retinamide]	30-40%
CC1=C(/C=C/C(C)=C/C=C/C(C)=C/C(=O)Cc2ccc(CC3OC(C(=O)O)C(O)C(O)C3O)cc2)C(C)(C)CCC1 [4-HBRCG (7), 2,6-Anhydro-7-deoxy-7-[4-(retinoylmethyl)-phenyl]-L-glycero-L-gulo-heptinoic acid]	30-40%
CC1=C(/C=C/C(C)=C/C=C/C(C)=C/C(=O)O)C(C)(C)CCC1 [Retinoic acid (2), all-trans retinoic acid]	30-40%
